The list shows only some results of the screen, not a fair sample: it is rich in T/C values a quarter to a half above the control, in often repeated tests (any T/C) and in doses without a T/C. Other doses and runs of a compound stand elsewhere. T/C: endpoint of the treated group in % of that of the vehicle group. Some entries give survivors of the animals treated and no T/C: the source holds a T/C of zero for them, seemingly a mark for toxic or unscored doses. Some doses without a T/C left all or most animals alive at the check, yet need not have been tolerated: survival well below the control is almost never listed, so the zero probably covers shortened survival too. Survivors were counted at the toxicity check, usually on the fifth day, unless a day is given; later deaths do not show. Schedules are NCI's codes, taken here to give the interval after Q, in days (D) or hours (H), and the number of doses after X. Some schedules carry Z or #; the key to these is not given. Some doses were run more than once; the results are listed from low to high. For survival time, the PubChem record calls one and a half times the control and up active, and a quarter to a half above the control has no call in these data; cut-offs in other NCI protocols can differ. Some T/C values carry the count of animals alive at the toxicity check (mostly the fifth day); without a count, all were alive then.
Tested on: L1210 leukemia ip in BDF1 mice, survival T/C
Experiment: NCI In Vivo Anticancer Drug Screen. Data for tumor model L1210 Leukemia (intraperitoneal) in B6D2F1 (BDF1) mice
Settings: higher T/C = longer survival
[1] = T/C endpoint: mean survival time, dose: 200.0 mg/kg/injection, schedule: Q04DX003 (ip), vehicle: saline with Tween-80
[2] = T/C endpoint: mean survival time, dose: 400.0 mg/kg/injection, schedule: Q04DX003 (ip), vehicle: saline with Tween-80
[3] = T/C endpoint: mean survival time, dose: 400.0 mg/kg/injection, schedule: Q01DX001 (ip), vehicle: saline

## CC[C@H]1CN2CCc3cc(OC)c(OC)cc3[C@@H]2C[C@@H]1C[C@H]1NCCc2cc(O)c(OC)cc21
T/C endpoint: mean survival time, dose: 2.0 mg/kg/injection, schedule: Q01DX015 (ip), vehicle: saline
  T/C: 131 and 141 % of control
T/C endpoint: mean survival time, dose: 4.0 mg/kg/injection, schedule: Q01DX005 (ip), vehicle: saline
  T/C: 130 % of control
T/C endpoint: mean survival time, dose: 4.0 mg/kg/injection, schedule: Q01DX015 (ip), vehicle: saline
  T/C: 136 % of control
T/C endpoint: mean survival time, dose: 7.5 mg/kg/injection, schedule: Q01DX001 (ip), vehicle: saline
  T/C: 127 % of control
T/C endpoint: mean survival time, dose: 7.5 mg/kg/injection, schedule: Q01DX015 (ip), vehicle: saline
  T/C: 148 % of control
T/C endpoint: mean survival time, dose: 8.0 mg/kg/injection, schedule: Q01DX015 (ip), vehicle: saline
  T/C: 129 % of control
T/C endpoint: mean survival time, dose: 8.0 mg/kg/injection, schedule: Q04DX003 (ip), vehicle: saline
  T/C: 127 % of control
T/C endpoint: mean survival time, dose: 15.0 mg/kg/injection, schedule: Q01DX001 (ip), vehicle: saline
  T/C: 135 % of control
T/C endpoint: mean survival time, dose: 16.0 mg/kg/injection, schedule: Q01DX009 (ip), vehicle: saline
  survivor count: 7 of 10
T/C endpoint: mean survival time, dose: 16.0 mg/kg/injection, schedule: Q04DX003 (ip), vehicle: saline
  T/C: 134 and 140 % of control
T/C endpoint: mean survival time, dose: 16.0 mg/kg/injection, schedule: Q## X003 (ip), vehicle: saline
  T/C: 130 % of control
T/C endpoint: mean survival time, dose: 16.0 mg/kg/injection, schedule: Q## X008 (ip), vehicle: saline
  T/C: 133 % of control [8 of 10 alive]
T/C endpoint: mean survival time, dose: 24.0 mg/kg/injection, schedule: Q01DX001 (oral), vehicle: saline
  survivor count: 7 of 10
T/C endpoint: mean survival time, dose: 30.0 mg/kg/injection, schedule: Q01DX001 (ip), vehicle: saline
  T/C: 132 % of control
T/C endpoint: mean survival time, dose: 30.0 mg/kg/injection, schedule: Q01DX015 (ip), vehicle: saline
  survivor count: 0 of 6 and 1 of 6
T/C endpoint: mean survival time, dose: 32.0 mg/kg/injection, schedule: Q01DX005 (ip), vehicle: saline
  survivor count: 3 of 10
T/C endpoint: mean survival time, dose: 32.0 mg/kg/injection, schedule: Q01DX009 (ip), vehicle: saline
  T/C: 136 % of control [9 of 10 alive]
T/C endpoint: mean survival time, dose: 32.0 mg/kg/injection, schedule: Q04DX003 (ip), vehicle: saline
  T/C: 136 % of control
T/C endpoint: mean survival time, dose: 32.0 mg/kg/injection, schedule: Q## X002 (ip), vehicle: saline
  survivor count: 0 of 10
T/C endpoint: mean survival time, dose: 32.0 mg/kg/injection, schedule: Q## X003 (ip), vehicle: saline
  survivor count: 4 of 10
T/C endpoint: mean survival time, dose: 32.0 mg/kg/injection, schedule: Q## X008 (ip), vehicle: saline
  survivor count: 3 of 10
T/C endpoint: mean survival time, dose: 32.0 mg/kg/injection, schedule: Q## X016 (ip), vehicle: saline
  survivor count: 3 of 10
T/C endpoint: mean survival time, dose: 32.0 mg/kg/injection, schedule: Q## X024 (ip), vehicle: saline
  survivor count: 0 of 10
T/C endpoint: mean survival time, dose: 48.0 mg/kg/injection, schedule: Q01DX001 (oral), vehicle: saline
  survivor count: 1 of 10
T/C endpoint: mean survival time, dose: 60.0 mg/kg/injection, schedule: Q01DX001 (ip), vehicle: saline
  T/C: 132 % of control [3 of 4 alive]
T/C endpoint: mean survival time, dose: 60.0 mg/kg/injection, schedule: Q01DX015 (ip), vehicle: saline
  survivor count: 0 of 6
T/C endpoint: mean survival time, dose: 64.0 mg/kg/injection, schedule: Q01DX009 (ip), vehicle: saline
  survivor count: 5 of 10
T/C endpoint: mean survival time, dose: 64.0 mg/kg/injection, schedule: Q04DX003 (ip), vehicle: saline
  survivor count: 1 of 10
T/C endpoint: mean survival time, dose: 64.0 mg/kg/injection, schedule: Q## X002 (ip), vehicle: saline
  survivor count: 2 of 10
T/C endpoint: mean survival time, dose: 64.0 mg/kg/injection, schedule: Q## X008 (ip), vehicle: saline
  survivor count: 0 of 10
T/C endpoint: mean survival time, dose: 64.0 mg/kg/injection, schedule: Q## X016 (ip), vehicle: saline
  survivor count: 0 of 10
T/C endpoint: mean survival time, dose: 96.0 mg/kg/injection, schedule: Q01DX001 (oral), vehicle: saline
  survivor count: 1 of 10
T/C endpoint: mean survival time, dose: 120.0 mg/kg/injection, schedule: Q01DX015 (ip), vehicle: saline
  survivor count: 0 of 6
T/C endpoint: mean survival time, dose: 240.0 mg/kg/injection, schedule: Q01DX015 (ip), vehicle: saline
  survivor count: 0 of 6
T/C endpoint: median survival time, dose: 32.0 mg/kg/injection, schedule: Q04DX003 (ip), vehicle: alkali diluted with saline
  T/C: 128 % of control
T/C endpoint: median survival time, dose: 64.0 mg/kg/injection, schedule: Q04DX003 (ip), vehicle: alkali diluted with saline
  T/C: 128 % of control

## [O-][n+]1c(Cl)nc(Cl)c(Cl)c1C(Cl)(Cl)Cl
T/C endpoint: mean survival time, dose: 100.0 mg/kg/injection, schedule: Q04DX003 (ip), vehicle: other
  survivor count: 0 of 3
T/C endpoint: mean survival time, dose: 200.0 mg/kg/injection, schedule: Q04DX003 (ip), vehicle: other
  survivor count: 0 of 3
T/C endpoint: mean survival time, dose: 400.0 mg/kg/injection, schedule: Q04DX003 (ip), vehicle: other
  survivor count: 0 of 3

## Cc1ccc(S(=O)(=O)C[n+]2cc(C)cc(C)c2)cc1
T/C endpoint: mean survival time, dose: 400.0 mg/kg/injection, schedule: Q04DX003 (ip), vehicle: saline
  survivor count: 6 of 6

## Cc1cc(C)c(C#[N+][O-])c(C)c1
T/C endpoint: mean survival time, dose: 100.0 mg/kg/injection, schedule: Q04DX003 (ip), vehicle: saline with Tween-80
  survivor count: 6 of 6

## CC(C)CN(C)/N=N/c1nc[nH]c1C(N)=O
T/C endpoint: mean survival time, dose: 12.5 mg/kg/injection, schedule: Q01DX Z (ip), vehicle: carboxymethylcellulose (CMC)
  T/C: 127 % of control
T/C endpoint: mean survival time, dose: 25.0 mg/kg/injection, schedule: Q01DX Z (ip), vehicle: carboxymethylcellulose (CMC)
  T/C: 144 % of control
T/C endpoint: mean survival time, dose: 28.0 mg/kg/injection, schedule: Q01DX015 (ip), vehicle: carboxymethylcellulose (CMC)
  T/C: 126 % of control
T/C endpoint: mean survival time, dose: 48.0 mg/kg/injection, schedule: Q01DX015 (ip), vehicle: carboxymethylcellulose (CMC)
  T/C: 137 % of control
T/C endpoint: mean survival time, dose: 50.0 mg/kg/injection, schedule: Q01DX009 (ip), vehicle: carboxymethylcellulose (CMC)
  T/C: 128 % of control
T/C endpoint: mean survival time, dose: 50.0 mg/kg/injection, schedule: Q01DX Z (ip), vehicle: carboxymethylcellulose (CMC)
  T/C: 142 % of control
T/C endpoint: mean survival time, dose: 60.0 mg/kg/injection, schedule: Q01DX009 (ip), vehicle: carboxymethylcellulose (CMC)
  T/C: 141 % of control
T/C endpoint: mean survival time, dose: 75.0 mg/kg/injection, schedule: Q01DX009 (ip), vehicle: carboxymethylcellulose (CMC)
  T/C: 137 % of control
T/C endpoint: mean survival time, dose: 75.0 mg/kg/injection, schedule: Q01DX Z (ip), vehicle: carboxymethylcellulose (CMC)
  survivor count: 6 of 6
T/C endpoint: mean survival time, dose: 112.0 mg/kg/injection, schedule: Q01DX009 (ip), vehicle: carboxymethylcellulose (CMC)
  T/C: 141 % of control
T/C endpoint: mean survival time, dose: 112.0 mg/kg/injection, schedule: Q01DX Z (ip), vehicle: carboxymethylcellulose (CMC)
  survivor count: 6 of 6
T/C endpoint: mean survival time, dose: 240.0 mg/kg/injection, schedule: Q01DX009 (ip), vehicle: carboxymethylcellulose (CMC)
  survivor count: 5 of 6
T/C endpoint: mean survival time, dose: 400.0 mg/kg/injection, schedule: Q01DX001 (ip), vehicle: carboxymethylcellulose (CMC)
  T/C: 132 % of control [5 of 6 alive]
T/C endpoint: median survival time, dose: 12.5 mg/kg/injection, schedule: Q01DX011 (ip), vehicle: steroid suspending solution
  T/C: 137 % of control
T/C endpoint: median survival time, dose: 25.0 mg/kg/injection, schedule: Q01DX011 (ip), vehicle: steroid suspending solution
  T/C: 143 % of control
T/C endpoint: median survival time, dose: 50.0 mg/kg/injection, schedule: Q01DX009 (ip), vehicle: steroid suspending solution
  T/C: 144 % of control

## CCN(CCO)Cc1cccc2ccccc12
[1]
  survivor count: 6 of 6
[2]
  survivor count: 1 of 6

## C#CCCCCCCC#CCCCCCCC#C
T/C endpoint: mean survival time, dose: 400.0 mg/kg/injection, schedule: Q04DX003 (ip), vehicle: acetone
  survivor count: 1 of 6

## c1ccc2c(OCC3=NCCN3)cccc2c1
T/C endpoint: mean survival time, dose: 100.0 mg/kg/injection, schedule: Q01DX009 (ip), vehicle: Klucel (hydroxypropylcellulose) (HPC)
  survivor count: 2 of 6
T/C endpoint: mean survival time, dose: 200.0 mg/kg/injection, schedule: Q01DX001 (ip), vehicle: Klucel (hydroxypropylcellulose) (HPC)
  survivor count: 0 of 6
T/C endpoint: mean survival time, dose: 400.0 mg/kg/injection, schedule: Q01DX001 (ip), vehicle: Klucel (hydroxypropylcellulose) (HPC)
  survivor count: 0 of 6

## C=CCCCCCCCCC(=O)NCCN1CCOCC1
[1]
  survivor count: 6 of 6
[2]
  survivor count: 0 of 6

## C=C1C(=O)OC2/C=C(\C)CC/C=C(\C)CC(OC(C)=O)C12 (stereo not given)
[3]
  survivor count: 1 of 4

## N#Cc1c(Br)n(C2OC(CO)C(O)C2O)c2ncnc(N)c12 (stereo not given)
T/C endpoint: mean survival time, dose: 200.0 mg/kg/injection, schedule: Q01DX001 (ip), vehicle: saline
  T/C: 127 % of control
[3]
  survivor count: 3 of 6
T/C endpoint: mean survival time, dose: 600.0 mg/kg/injection, schedule: Q01DX001 (ip), vehicle: saline
  T/C: 131 % of control [5 of 6 alive]

## COc1cc(Br)c(CC2c3cc(OC)c(OC)cc3CC[N+]2(C)C)cc1OC (stereo not given)
T/C endpoint: mean survival time, dose: 400.0 mg/kg/injection, schedule: Q01DX009 (ip), vehicle: water
  survivor count: 2 of 6
